Each structure is given as a SMILES string. This is a selection; strong and weak results do not stand in their true shares. Most entries show no effect beyond the scatter of the controls.
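Also: lysate desalted by size exclusion to strip endogenous ATP, peptide intensities built from DIA-NN precursor signals, and peptides missing any value discarded before comparison.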

In this assay the target is UniProt P0AAR3. Put plainly: log2 fold change of tryptic peptide abundance, ligand vs vehicle (limited proteolysis) (log2 ratio); higher = more trypsin-susceptible (destabilized). To be noted: peptide sequence: RGLDIELAAGDLAK; peptide start residue: 133; ligand concentration: 5 mM; sample: E. coli desalted lysate; replicate design: treated before aliquoting. As to the method: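 HT-PELSA: desalted E. coli K-12 BW25113 lysate (with 12 mM MgCl2) incubated with 5 mM ATP (pH 7) or water for 30 min at 25 C, then a 4 min trypsin pulse at 22 C. Peptides were quantified by DIA-MS (4 replicates). Value is the peptide log2 fold change (treated/control); negative = stabilized. Scale: negative = ligand-stabilized region.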
On to `Nc1ncnc2c1ncn2[C@@H]1O[C@H](COP(=O)(O)OP(=O)(O)OP(=O)(O)O)[C@@H](O)[C@H]1O` [adenosine 5'-triphosphate], for which the log2 fold change was -0.315.

The record behind these values is the supplement of paper PMC12819154, “High-throughput peptide-centric local stability assay extends protein–ligand identification to membrane proteins, tissues and bacteria” (Nature Structural & Molecular Biology, 2025).
